Sequences of proteins named here, by UniProt entry; tags and fusion partners are left off. A change or cut given only in a name is not applied to a line headed by its entry.
UniProt P07834: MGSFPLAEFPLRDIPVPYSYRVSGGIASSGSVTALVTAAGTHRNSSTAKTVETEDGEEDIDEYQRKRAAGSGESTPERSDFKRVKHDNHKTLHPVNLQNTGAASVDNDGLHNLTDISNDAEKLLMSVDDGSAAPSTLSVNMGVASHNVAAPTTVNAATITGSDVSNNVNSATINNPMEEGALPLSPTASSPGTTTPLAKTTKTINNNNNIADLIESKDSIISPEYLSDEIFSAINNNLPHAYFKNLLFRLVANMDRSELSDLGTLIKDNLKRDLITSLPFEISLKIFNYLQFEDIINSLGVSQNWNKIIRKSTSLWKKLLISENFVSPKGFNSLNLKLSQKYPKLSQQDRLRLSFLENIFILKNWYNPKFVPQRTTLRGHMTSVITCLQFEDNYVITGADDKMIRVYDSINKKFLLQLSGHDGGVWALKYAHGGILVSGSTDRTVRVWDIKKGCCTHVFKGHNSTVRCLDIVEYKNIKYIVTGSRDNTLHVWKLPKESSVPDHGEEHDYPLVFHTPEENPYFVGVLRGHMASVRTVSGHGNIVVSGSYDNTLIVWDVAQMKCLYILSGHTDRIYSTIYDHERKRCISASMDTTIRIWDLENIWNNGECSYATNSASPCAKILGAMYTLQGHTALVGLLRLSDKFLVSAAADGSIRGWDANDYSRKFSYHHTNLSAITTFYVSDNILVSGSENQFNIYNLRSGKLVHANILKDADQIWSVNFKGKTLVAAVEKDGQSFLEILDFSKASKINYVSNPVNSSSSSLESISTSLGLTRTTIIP

In PMC6095599:

Target: GST fusion to Cdc4ΔFbox (budding yeast) (UniProt P07834)
Experiment: pull-down; GST fusions affinity purified with glutathione beads from extracts of cdc4ts grr1 yeast cells co-expressing Cln3–13myc; immunoblot with αmyc and αGST

B1: Cln3–13myc (protein, UniProt P13365 1-580)
chain: MAILKDTIIRYANARYATASGTSTATAASVSAASCPNLPLLLQKRRAIASAKSKNPNLVKRELQAHHSAISEYNNDQLDHYFRLSHTERPLYNLTNFNSQPQVNPKMRFLIFDFIMYCHTRLNLSTSTLFLTFTILDKYSSRFIIKSYNYQLLSLTALWISSKFWDSKNRMATLKVLQNLCCNQYSIKQFTTMEMHLFKSLDWSICQSATFDSYIDIFLFQSTSPLSPGVVLSAPLEAFIQQKLALLNNAAGTAINKSSSSQGPSLNINEIKLGAIMLCELASFNLELSFKYDRSLIALGAINLIKLSLNYYNSNLWENINLALEENCQDLDIKLSEISNTLLDIAMDQNSFPSSFKSKYLNSNKTSLAKSLLDALQNYCIQLKLEEFYRSQELETMYNTIFAQSFDSDSLTCVYSNATTPKSATVSSAATDYFSDHTHLRRLTKDSISPPFAFTPTSSSSSPSPFNSPYKTSSSMTTPDSASHHSHSGSFSSTQNSFKRSLSIPQNSSIFWPSPLTPTTPSLMSNRKLLQNLSVRSKRLFPVRPMATAHPCSAPTQLKKRSTSSVDCDFNDSSNLKKTR
binding: binds

These are yes or no findings as the source states them, for the method shown. Binding seen in cells or lysates may run through a third protein. Binding calls can cover weak binding; strength is not graded here. Tags and fused reporters may be left off the sequences shown.
